Experimental data as given in paper doi:10.1101/336305.
Results are given in words; binding and its absence hold for the method and conditions named. In cells and extracts the contact can be indirect. Some results given as binding are weak or reduced against the parent protein; the word gives no strength.

Biological target: T1, Ptf1a (mouse (endogenous in 266-6)) (UniProt Q9QX98)
T1 sequence: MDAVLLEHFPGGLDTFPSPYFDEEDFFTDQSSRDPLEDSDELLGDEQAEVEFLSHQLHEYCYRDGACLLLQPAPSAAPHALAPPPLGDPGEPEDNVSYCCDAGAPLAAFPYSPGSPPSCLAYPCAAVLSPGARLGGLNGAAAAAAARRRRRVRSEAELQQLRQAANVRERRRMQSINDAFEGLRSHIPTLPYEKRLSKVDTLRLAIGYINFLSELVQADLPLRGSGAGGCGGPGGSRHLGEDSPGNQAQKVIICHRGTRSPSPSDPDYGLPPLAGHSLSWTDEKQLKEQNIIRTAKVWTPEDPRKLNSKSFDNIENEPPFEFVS
Assay: co-IP

- binding: binds
B1: Hes1 (protein, UniProt P35428 1-282)
chain: MPADIMEKNSSSPVAATPASVNTTPDKPKTASEHRKSSKPIMEKRRRARINESLSQLKTLILDALKKDSSRHSKLEKADILEMTVKHLRNLQRAQMTAALSTDPSVLGKYRAGFSECMNEVTRFLSTCEGVNTEVRTRLLGHLANCMTQINAMTYPGQAHPALQAPPPPPPSGPAGPQHAPFAPPPPPLVPIPGGAAPPPGSAPCKLGSQAGEAAKVFGGFQVVPAPDGQFAFLIPNGAFAHSGPVIPVYTSNSGTSVGPNAVSPSSGSSLTSDSMWRPWRN
